According to US4624954A, “6,7,8,9-tetrahydro-10-methylpyrido[1,2-a]indol-9-amines and derivatives thereof, useful for the treatment of cognitive impairments” (American Home Products Corporation, priority 1985, dated 1986):

Assay: Passive avoidance test: prevention of scopolamine-induced memory impairment in rats
Assay type: in vivo, male Sprague-Dawley rats
Details: scopolamine alone 2.0 mg/kg s.c. 15 or 30 minutes prior to training

## CN1[C@@H]2C[C@@H](OC(=O)[C@H](CO)c3ccccc3)C[C@H]1[C@@H]1O[C@@H]12 [scopolamine, reference compound]
  entry into the dark compartment during the retention test (latency): ≤ 50 s
